Experimental data as given in article doi:10.1101/2020.05.04.075952.
Where a chain is given by its changes, count along the chain named. Results are given in words; binding and its absence hold for the method and conditions named. In cells and extracts the contact can be indirect. Some results given as binding are weak or reduced against the parent protein; the word gives no strength. Sequences can lack the tags named with a protein.

Key:
[1] = target: T1, ASPP2-REVD mutant (R921E and V922D) (human) (UniProt Q13625); experiment: co-IP
T1 sequence: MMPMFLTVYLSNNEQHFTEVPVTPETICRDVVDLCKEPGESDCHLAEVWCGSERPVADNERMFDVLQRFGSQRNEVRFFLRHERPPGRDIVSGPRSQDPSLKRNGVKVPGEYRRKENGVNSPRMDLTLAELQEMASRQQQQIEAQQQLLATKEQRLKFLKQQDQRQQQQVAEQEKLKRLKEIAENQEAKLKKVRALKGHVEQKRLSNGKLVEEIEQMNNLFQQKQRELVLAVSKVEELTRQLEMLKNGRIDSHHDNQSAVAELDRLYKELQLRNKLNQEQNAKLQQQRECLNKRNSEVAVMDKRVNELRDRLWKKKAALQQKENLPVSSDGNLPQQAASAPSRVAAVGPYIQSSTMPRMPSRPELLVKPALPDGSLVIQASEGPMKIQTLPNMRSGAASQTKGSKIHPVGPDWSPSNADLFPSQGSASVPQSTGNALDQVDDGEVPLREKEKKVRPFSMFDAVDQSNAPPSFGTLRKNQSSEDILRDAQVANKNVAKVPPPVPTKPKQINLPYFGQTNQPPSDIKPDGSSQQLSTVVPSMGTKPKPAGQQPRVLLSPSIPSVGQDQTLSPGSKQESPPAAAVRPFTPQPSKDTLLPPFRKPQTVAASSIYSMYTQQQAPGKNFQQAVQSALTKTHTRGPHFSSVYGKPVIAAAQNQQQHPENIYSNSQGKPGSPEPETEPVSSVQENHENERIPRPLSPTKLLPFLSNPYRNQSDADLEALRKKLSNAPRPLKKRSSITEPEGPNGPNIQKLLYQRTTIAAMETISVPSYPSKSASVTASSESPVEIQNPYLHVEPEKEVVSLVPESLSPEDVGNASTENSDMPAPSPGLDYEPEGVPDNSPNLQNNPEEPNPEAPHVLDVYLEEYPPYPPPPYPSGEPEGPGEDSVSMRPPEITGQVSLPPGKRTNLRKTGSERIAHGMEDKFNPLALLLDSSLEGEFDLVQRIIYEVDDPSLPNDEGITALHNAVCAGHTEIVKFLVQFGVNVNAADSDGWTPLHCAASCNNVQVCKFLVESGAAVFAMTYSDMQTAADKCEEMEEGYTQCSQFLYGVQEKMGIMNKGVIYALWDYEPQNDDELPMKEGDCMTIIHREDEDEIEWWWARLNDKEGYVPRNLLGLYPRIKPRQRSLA

[2] = target: T2, V5-human ASPP2 full-length (human) (UniProt Q13625); experiment: co-IP
T2 sequence: T1 sequence with E921R, D922V

B1: HA-LATS2 (enzyme, UniProt Q7TSJ6 1-1042)
chain: MRPKTFPATTYSGNSRQRLQEIREGLKQPSKASTQGLLVGPNSDTSLDAKVLGSKDASRQQQMRATPKFGPYQKALREIRYSLLPFANESGTSAAAEVNRQMLQELVNAGCDQEMAGRALKQTGSRSIEAALEYISKMGYLDPRNEQIVRVIKQTSPGKGLAPTPVTRRPSFEGTGEALPSYHQLGGANYEGPAALEEMPRQYLDFLFPGAGAGTHGAQAHQHPPKGYSTAVEPSAHFPGTHYGRGHLLSEQPGYGVQRSSSFQNKTPPDAYSSMAKAQGGPPASLTFPAHAGLYTASHHKPAATPPGAHPLHVLGTRGPTFTGESSAQAVLAPSRNSLNADLYELGSTVPWSAAPLARRDSLQKQGLEASRPHVAFRAGPSRTNSFNNPQPEPSLPAPNTVTAVTAAHILHPVKSVRVLRPEPQTAVGPSHPAWVAAPTAPATESLETKEGSAGPHPLDVDYGGSERRCPPPPYPKHLLLPSKSEQYSVDLDSLCTSVQQSLRGGTEQDRSDKSHKGAKGDKAGRDKKQIQTSPVPVRKNSRDEEKRESRIKSYSPYAFKFFMEQHVENVIKTYQQKVSRRLQLEQEMAKAGLCEAEQEQMRKILYQKESNYNRLKRAKMDKSMFVKIKTLGIGAFGEVCLACKLDTHALYAMKTLRKKDVLNRNQVAHVKAERDILAEADNEWVVKLYYSFQDKDSLYFVMDYIPGGDMMSLLIRMEVFPEHLARFYIAELTLAIESVHKMGFIHRDIKPDNILIDLDGHIKLTDFGLCTGFRWTHNSKYYQKGNHMRQDSMEPGDLWDDVSNCRCGDRLKTLEQRAQKQHQRCLAHSLVGTPNYIAPEVLLRKGYTQLCDWWSVGVILFEMLVGQPPFLAPTPTETQLKVINWESTLHIPTQVRLSAEARDLITKLCCAADCRLGRDGADDLKAHPFFNTIDFSRDIRKQPAPYVPTISHPMDTSNFDPVDEESPWHEASGESAKAWDTLASPSSKHPEHAFYEFTFRRFFDDNGYPFRCPKPSEPAESADPGDADLEGAAEGCQPVYV
- binding [1]: binds
- binding [2]: binds
